Measurements from patent publication US20090226500A1, “SUTURES AND ANTI-SCARRING AGENTS” (Angiotech Pharmaceuticals, Inc, priority 2006, published 2009).

How the values were obtained:
[1] = system: MCP-1 production by THP-1 cells; assay: MCP-1 production by macrophages; format: cell-based; details: Homo sapiens, THP-1, 24 h, read-out: IC50 MCP-1 production
Description: The human macrophage cell line, THP-1 was plated in a 12 well plate such that each well contains 1×10^6 cells in 2 ml of media containing 10% FCS. Opsonized zymosan was prepared by resuspending 20 mg of zymosan A in 2 ml of ddH2O and homogenizing until a uniform suspension was obtained. Homogenized zymosan was pelleted at 250 g and resuspended in 4 ml of human serum for a final concentration of 5 mg/ml and incubated in a 37° C. water bath for 20 minutes to enable opsonization. Geldanamycin was prepared in DMSO at a concentration of 10^−2 M and serially diluted 10-fold to give a range of stock concentrations (10^−8 M to 10^−2 M).
THP-1 cells were stimulated to produce MCP-1 by the addition of 1 mg/ml opsonized zymosan. […] was added to THP-1 cells by directly adding DMSO stock solutions, prepared earlier, at a 1/1000 dilution, to each well. Each drug concentration was tested in triplicate wells. Plates were incubated at 37° C. for 24 hours.
After a 24-hour stimulation, supernatants were collected to quantify MCP-1 production. MCP-1 concentrations in the supernatants were determined by ELISA using recombinant human MCP-1 to obtain a standard curve. […] The dilution of Capture Antibody used was lot-specific and was determined empirically. […] Mean absorbance was determined from triplicate data readings and the mean background was subtracted. […]

human fibroblasts = assay: Cell proliferation of fibroblasts; format: cell-based; details: Fibroblast, 72 hours, CYQUANT
Description: Fibroblasts at 70-90% confluency are trypsinized, replated at 600 cells/well in media in 96-well plates and allowed to attachment overnight. […] Each drug concentration is tested in triplicate wells. Plates containing fibroblasts and drug substance are incubated at 37° C. for 72 hours.
To terminate the assay, the media is removed by gentle aspiration. A 1/400 dilution of CYQUANT 400×GR™ dye indicator (Molecular Probes; Eugene, Oreg.) is added to 1× Cell Lysis buffer, and 200 μL of the mixture is added to the wells of the plate. Plates are incubated at room temperature, protected from light for 3-5 minutes.

CC[C@H](CO)Nc1nc(NCc2ccccc2)c2ncn(C(C)C)c2n1 [CYC 202]
IC50 [1]: 0.306 µM

CNCCCC12CCC(c3ccccc31)c1ccccc12 [Maprotiline]
IC50 (human fibroblasts): 1.2 to 10 µM

Clc1ccc(COC(Cn2ccnc2)c2ccc(Cl)cc2Cl)c(Cl)c1 (stereo not shown) [Miconazole]
IC50 (human fibroblasts): 1.2 to 10 µM

CC/C(=C(\c1ccccc1)c1ccc(OCCN(C)C)cc1)c1ccccc1 [Tamoxifen]
IC50 (human fibroblasts): 1.2 to 10 µM
